The source of these data is publication doi:10.1101/2021.05.20.444955.

Like-named read-outs stand apart in the source and are kept apart here. No constants are given. Whether binding was seen depends on the method and setting. For some assays here: A result given as binding can be weak or reduced; the word gives no strength. Tags and fused reporters may be left off the sequences shown.

Holding throughout (assay): two-hybrid
Assay [1] concerns the target T1, SPD-5(CL), C4 region aa 927–1060, yeast two-hybrid fusion (C. elegans) (UniProt P91349).
T1 sequence: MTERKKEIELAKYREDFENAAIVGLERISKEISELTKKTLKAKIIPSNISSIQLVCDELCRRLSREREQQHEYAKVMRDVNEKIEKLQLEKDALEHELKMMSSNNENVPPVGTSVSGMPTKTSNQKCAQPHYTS

The target in assay [2] is T2, SPD-5(C1), aa 927–1198, yeast two-hybrid fusion (C. elegans) (UniProt P91349).
T2 sequence: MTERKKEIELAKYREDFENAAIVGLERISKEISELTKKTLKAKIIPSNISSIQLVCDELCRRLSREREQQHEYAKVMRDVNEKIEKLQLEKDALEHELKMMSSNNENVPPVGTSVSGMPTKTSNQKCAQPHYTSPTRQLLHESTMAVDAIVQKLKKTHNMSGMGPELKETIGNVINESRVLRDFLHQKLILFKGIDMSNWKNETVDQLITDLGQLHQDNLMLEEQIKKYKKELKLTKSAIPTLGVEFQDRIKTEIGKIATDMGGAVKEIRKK

For assay [3], the target named is T3, SPD-5(C2), aa 1061–1198, yeast two-hybrid fusion (C. elegans) (UniProt P91349).
T3 sequence: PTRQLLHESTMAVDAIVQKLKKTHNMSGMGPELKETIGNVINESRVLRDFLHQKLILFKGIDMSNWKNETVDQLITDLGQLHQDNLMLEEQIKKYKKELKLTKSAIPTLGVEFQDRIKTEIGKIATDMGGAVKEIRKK

Assay [4] concerns the target T2, SPD-5(C1), aa 927–1198, yeast two-hybrid fusion (C. elegans). The source holds these as a separate data set.

In the case of “PCMD-1, yeast two-hybrid fusion (C. elegans)”, the binding result in assay [1] was “binds”; in assay [2], “binds”; in assay [3], “no binding”; in assay [4] it was “binds”.
Take “PCMD-1 N-terminal half region (aa 1–242), yeast two-hybrid fusion (C. elegans) (domain or fragment)”: the binding entry in assay [1] is on record as “binds”.
